The source of these data is patent US20150299290A1 (University of Georgia Research Foundation, Inc., priority 2010, published 2015).

The data set can be described thus: general procedure: Fmoc solid-phase peptide synthesis; Rink amide resin; HMPB-MBHA resin; H-Gly-sulfamylbutyryl Novasyn TG resin; HBTU/HOBt; HATU and PyBOP/HOBt/DIPEA for manual couplings.

Pam3Cys-YAF-Tn gave a step yield (late stage modification step) of 79%.

As for “Pam3CysSK4G-C-KLFAVWKITYKDT-G-GSTPVS(β-S-GluNAc)SANM”, the step yield (coupling step) was found to be 64%.
